Measurements as given in patent US20170029530A1.
Residue numbers refer to the chain shown, from its start. These are yes or no findings as the source states them, for the method shown. Some binding calls cover weakened binding; strength is not graded here.

Amino acid sequences for entries named in this document (tags omitted). A change or cut given only in a name is not applied to a line headed by its entry. Residues count along the entry.
UniProt Q4R7M2, residues 36-463: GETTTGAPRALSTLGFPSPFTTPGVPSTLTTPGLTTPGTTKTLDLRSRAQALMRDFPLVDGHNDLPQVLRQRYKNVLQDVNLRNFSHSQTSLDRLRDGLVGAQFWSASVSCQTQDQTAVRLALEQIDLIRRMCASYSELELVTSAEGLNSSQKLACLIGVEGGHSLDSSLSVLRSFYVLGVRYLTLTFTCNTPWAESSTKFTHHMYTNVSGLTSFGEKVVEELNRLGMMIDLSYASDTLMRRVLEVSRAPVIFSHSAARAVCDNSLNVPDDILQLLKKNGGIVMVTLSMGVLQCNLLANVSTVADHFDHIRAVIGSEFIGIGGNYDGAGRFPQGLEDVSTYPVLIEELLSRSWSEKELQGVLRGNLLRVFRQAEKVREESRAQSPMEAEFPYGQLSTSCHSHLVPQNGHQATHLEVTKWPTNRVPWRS
UniProt Q5U2X4: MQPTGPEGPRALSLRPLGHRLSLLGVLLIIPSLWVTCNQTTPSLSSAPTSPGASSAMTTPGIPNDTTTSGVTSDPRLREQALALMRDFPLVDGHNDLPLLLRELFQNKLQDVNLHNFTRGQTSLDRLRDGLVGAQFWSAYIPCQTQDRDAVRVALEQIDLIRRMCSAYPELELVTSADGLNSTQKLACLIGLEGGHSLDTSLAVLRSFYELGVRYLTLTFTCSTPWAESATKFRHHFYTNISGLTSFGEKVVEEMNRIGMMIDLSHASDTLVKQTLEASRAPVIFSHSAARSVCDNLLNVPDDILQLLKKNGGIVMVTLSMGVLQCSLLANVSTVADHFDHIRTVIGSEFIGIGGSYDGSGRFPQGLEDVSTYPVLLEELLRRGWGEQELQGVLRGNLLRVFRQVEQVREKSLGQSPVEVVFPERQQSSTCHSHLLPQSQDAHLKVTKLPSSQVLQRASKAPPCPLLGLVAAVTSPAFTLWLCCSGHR

T1: mDPEP3
T1 sequence (single chain): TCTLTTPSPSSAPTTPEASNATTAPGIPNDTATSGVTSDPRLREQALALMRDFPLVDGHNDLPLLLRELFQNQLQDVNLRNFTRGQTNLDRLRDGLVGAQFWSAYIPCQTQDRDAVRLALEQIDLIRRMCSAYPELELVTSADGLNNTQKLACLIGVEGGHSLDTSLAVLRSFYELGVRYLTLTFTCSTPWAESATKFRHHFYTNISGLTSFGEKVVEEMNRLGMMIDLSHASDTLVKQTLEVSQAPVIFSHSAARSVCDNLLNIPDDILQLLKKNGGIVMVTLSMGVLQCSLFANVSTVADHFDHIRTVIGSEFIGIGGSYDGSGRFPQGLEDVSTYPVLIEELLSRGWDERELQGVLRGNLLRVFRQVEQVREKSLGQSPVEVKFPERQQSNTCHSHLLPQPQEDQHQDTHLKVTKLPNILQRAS

T2: human DPEP3 (hDPEP3) protein on the cell surface (human) (UniProt Q9H4B8)
T2 sequence (chain, GPI anchor at the C-terminus after removal of the final 25 amino acids): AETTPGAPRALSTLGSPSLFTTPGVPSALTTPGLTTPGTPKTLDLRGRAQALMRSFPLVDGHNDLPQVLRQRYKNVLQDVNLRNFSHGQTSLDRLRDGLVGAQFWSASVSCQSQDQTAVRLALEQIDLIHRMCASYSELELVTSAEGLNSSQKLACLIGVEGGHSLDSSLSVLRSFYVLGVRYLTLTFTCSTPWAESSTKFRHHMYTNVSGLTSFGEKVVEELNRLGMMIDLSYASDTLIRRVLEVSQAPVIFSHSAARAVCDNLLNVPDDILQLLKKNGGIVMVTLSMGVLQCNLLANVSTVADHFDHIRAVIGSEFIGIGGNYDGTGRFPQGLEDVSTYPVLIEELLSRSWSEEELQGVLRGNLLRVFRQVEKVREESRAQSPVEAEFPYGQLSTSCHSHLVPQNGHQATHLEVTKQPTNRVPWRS

B1: SC34.36 (antibody, mouse IgG2a, V domains shown)
VH: QVQLQQPGSVLVRPGASVKLSCKASGYTFTSYWMHWVKQRPGQGLEWIGEISPTSGRPNYNAKFKGKATLTVDTSSSTAYVDLSSLTSEDSAVYYCAKGEGYYGKAFDYWGQGTTLTVSS
VL: DIQMTQTTSSLSASLGDRVTISCRASQDISNYLNWYQQKPDGTVKLLIYYTSRLHSGVPSRFSGSGSGTDYSLTISNLEQEDIATYFCQQGNTLPWTFGGGTKLEIK
B2: SC34.63 (antibody, mouse IgG1)
light chain: DIVMSQSPSSLAVSVGEKVTMSCKSSQSLLYSKYQKNYLAWYQQKPGQSPKLLIYWASTRESGVPDRFTGSESGTDFTLTISSVKAEDLAVYYCQQYYRYPLTVGAGTKLELK
heavy chain: QVQLQQSGVELARPGASVKLSCKASGYTFTSYGIDWVKQRTGQGLEWIGETYPGRGDTYYNENFKGKATLTTDKSSSTAFLQLSSLTSEDSAVYFCARVHDYGSWFPYWGQGTLVTVSA
B3: SC34.95 (antibody, mouse IgG1)
light chain: B2 light chain with M4L, Y31N, K33R, Y34D, Q35R, Y42C, L52V, L53M, E72G, R99S
heavy chain: QVQVKQSGAELARPGASVKLSCKASGYTFTSYAINWLKQRTGQGLEWIGEIYPGSGNTYYNESFKNKATLTTDKSSTTAYMQLNSLTSEDSAVYFCARVHDYGSWFPYWGQGTLVTVSA
B4: SC34.83 (antibody, mouse IgG2a, V domains shown)
VH: QVQLQQSGAELVKPGASVKISCKASGYAFSHSWMNWVKQRPGKGLEWIGRIYPGDGDINYNGKFKGKATLTADKSSSTAYMQLSSLTSEDSAVYFCARRGPSYNNYCFDYWGQGTTLTVSS
VL: QIVLIQSPAIMSASPGENVTMTCSASSSVSYMHWYQQKSGTSPKRWIYDTSKLASGVPARFSGSGSGTSYSLTISSMEAEDAATYYCQQWNSYPPTFGAGTKLELK
B5: SC34.4 (antibody, mouse IgG2b, V domains shown)
VH: QVQLQQSGAELARPGASVKLSCKASGYTFTSYGINWVKQRTGQGLEWIGEIYPGSGNIYYNEKFKGKAILTTDKSSNTAYMQLSSLTSEDSAVYFCARVHDYGSWFPYWAQGTLVTVSA
VL: DIVMSQSPSSLTVSVGEKVTMSCKSSQSLLYSRNQKNYLAWYQQKPGQSPKLLIYWASTRDSGVPDRFTGTGSGTDFSLTISSVKTEDLAVYYCHQHYRYPLTFGAGTKLELK
B6: SC34.91 (antibody, mouse IgG1, V domains shown)
VH: B2 heavy chain with V9A, T30R, G33A, D35S, T51I, R55S, F80Y, L81M, Y102N
VL: B2 light chain with K33T, Y42F, E72G, V104F
B7: SC34.76 (antibody, mouse IgG1, V domains shown)
VH: B5 VH with A24T, G26E, G33A, I51V, I58T, N77S, A79G, S85N, A110G
VL: B2 light chain with K18R, S22N, L30F, K33R, E72G, V104F
B8: SC34.13 (antibody, mouse IgG2a, V domains shown)
VH: B5 VH with L4V, G33A, N35S, I58T, E62G, I69T, N77S, H100D, A110G
VL: B2 light chain with M21L, K33R, K51R, L53V, E72G, A90V, V104F, A106S
B9: SC34.67 (antibody, mouse IgG2a, V domains shown)
VH: B5 VH with K19R, N57D, I58S, E62K, K63T, N77S, S88P, A110G, Q111P, T113A
VL: DMVMSQSPSSLAVSVGEKVALSCKSSQSLLHSRDQKNYLAWYQQKPGQSPKLLIHWASTRESGVPARFTGSGSGTDFTLTISSVKAEDLAVYYCQQSYRYPLTFGAGTKLELK
B10: SC34.89 (antibody, mouse IgG1, V domains shown)
VH: B5 VH with G33A, N35S, G42R, N57D, Y59H, N61S, E62G, I69S, N77S, A110G
VL: DIVMSQSPSSLGVSVGEKVTLSCKSSQSLFNKRDQKNYLAWYQQKPGQSPKLLIYWASTRESGVPDRFTGSGSGTDFILTIRSVKAEDLAVYYCHQSYRYPLTFGAGTKLELK
B11: SC34.27 (antibody, mouse IgG1, V domains shown)
VH: B2 heavy chain with V9A, T30R, D35N, T51I, T58V, F80Y, L81M
VL: B2 light chain with K33R, Y34N, E72G, S82N, Q95H, V104F
B12: SC34.7 (antibody, mouse IgG1, V domains shown)
VH: B5 VH with L4V, I58A, G66V, I69K, K74N, N77R, S84I, S85N, A110G
VL: B2 light chain with K33R, E72G, Q95H, V104F
B13: SC34.86 (antibody, mouse IgG1, V domains shown)
VH: B5 VH with G33T, N35T, I58T, I69T, N77S, A110G
VL: B2 light chain with I2T, M21L, K33R, I54L, E72G, Y97H, V104F
B14: SC34.24 (antibody, mouse IgG1, V domains shown)
VH: B5 VH with A9P, G26E, G33A, N35T, T41A, N57D, I58T, I69T, N77S, A110G
VL: B2 light chain with S22N, K33R, E72G, V104F
B15: SC34.25 (antibody, mouse IgG1, V domains shown)
VH: QVQLQQSGVELARPGASVKVSCKASGYTFTSYAISWVKQRTGQGLEWIGEIYPGSGETYYNEKFKGKATLTTDKSSSTAYMHLSSLTSEDSAVYLCGRVNDYGSWFPYWGQGTLVTVSA
VL: B2 light chain with V15G, K33R, L39V, E72G, V104F
B16: SC34.20 (antibody, mouse IgG1, V domains shown)
VH: QVQLQQSGSELARPGASVKLSCKASGYTFRSYAISWVRQRTGQGLEWIGEIYPESGNTDYNAQFKGKATLTTDKSSSTAYMQLSSLTSEASAVYFCARVHDYGSWFPYWGQGTLVTVSA
VL: B2 light chain with A12T, K33T, Y42F, E72G, V104F
B17: SC34.19 (antibody, mouse IgG1, V domains shown)
VH: B5 VH with G33A, N35T, I58T, Y59F, Y60F, K67R, I69T, N77S, A110G
VL: DIVMSQSPSALAVSVGEKITMSCKCSQSLLHSRDQKNYLAWYQQKPGQSPKLLIYWASTRESGVPDRFTGSGSGTDFTLTINTVKAEDLAVYYCQQHYRYPLTFGAGTKLELK
B18: SC34.16 (antibody, mouse IgG1, V domains shown)
VH: QVQLQQSGTELARPGASVKLSCKASEYTFTSYAITWVRQRTGQGLEWIGEIYPGSGNTYYNETFKGKATLTSDKSSSTASMQLSSLTSEDSAVYFCARVHDYGSWFPYWGQGTLVTVSA
VL: B2 light chain with K33R, A57S, E72G, V91D, V104F
B19: SC34.87 (antibody, mouse IgG2a, V domains shown)
VH: QVQLQQSGAELAKPGASVKMSCKASGYTFTSYWMLWVKQRPGQGLEWIGYIDPRNGYTEYNQKFKDKATLTADKSSSTAYMQLSSLTSEDSAVYYCTRGGNVAMDYWGQGTSVTVSS
VL: DIVMSQSPSSLAVSAGEKVTMSCKSSQSLLNSRTRKNYLAWYQQKPGQSPKLLIYWASTRESGVPGRFTGSGSGTDFTLTISSVQAEDLAVYYCKQSYNLWTFGGGTKLEIK
B20: SC34.50 (antibody, mouse IgG2b, V domains shown)
VH: QVQLQQPGAELVRPGASVKLSCKASGYTFTSYWINWVKQRPGQGLEWIGNIFPSDSYTNYNQKFRDKATLTVDKSSSTAYMQLSSPTSEDSAVYYCTIRTYGNYFDYWGQGTTLTVSS
VL: DIQMTQSSSSFSVSLGDRVTITCKASEDIYNRLAWYQQKPGNAPRLLISGATSLETGVPSRFSGSGSGKDYTLSITSLQTEDVATYYCQQYWSTIFTFGSGTKLEIK
B21: SC34.49 (antibody, mouse IgG1, V domains shown)
VH: EVQLQQSGPELVKPGSSVKISCKASGYTFTDYHMNWVKQSHGKSLEWIGNINPYYGVSTYNQNLKGTATLTVDKSSSTAYMELRGLTSEDSAVYYCVRRAMDSPRFAYWGQGTLVTVSA
VL: DIQMTQSSSYLSVSLGGRVTITCKASEHINNWLAWYQQKPGNPPRLLISGATSLETGVPSRFSGSGSGKDYTLSITGLQTEDIATYFCQQYRSTPFTFGSGTKLEIK
B22: SC34.33 (antibody, mouse IgG1, V domains shown)
VH: QVQLQQSGAELMKPGASVKISCKATGYTFSSYWIEWVKQRPGHGLEWIGEILPGSDKTYYNERFKDKATFTADTSSNTAYMQLSSLTSEDSAVYYCTRRAAAYYSNPEWFAYWGQGTLVTVSA
VL: QIVLTQSPAIMSASLGERVTMTCTASSSVNSFYLHWYQQKPGSSPKLWIHSTSNLASGVPGRFSGSGSGTSYSLTISSMEAEDAATYYCHQYHRSPYTFGGGTKLEIK

biological target: cDPEP3 (Macaca fascicularis) (UniProt Q4R7M2); test: ELISA, coated antigen, antibody 1 ug/mL

| binding | Binder |
| --- | --- |
| binds | B1 |
| binds | B2 |
| binds | B3 |
| binds | B4 |
| binds | B5 |
| binds | B6 |
| binds | B7 |
| binds | B8 |
| binds | B9 |
| binds | B10 |
| binds | B11 |
| binds | B12 |
| binds | B13 |
| binds | B14 |
| binds | B15 |
| binds | B16 |
| binds | B17 |
| binds | B18 |

biological target: T1, mDPEP3; test: ELISA, coated antigen, antibody 1 ug/mL

| binding | Binder |
| --- | --- |
| binds | B4 |

biological target: rat DPEP3 ECD with histidine tag (rat) (UniProt Q5U2X4); test: ELISA, coated antigen, antibody 1 ug/mL

| binding | Binder |
| --- | --- |
| binds | B19 |
| binds | B3 |
| binds | B4 |
| binds | B5 |

biological target: T2, human DPEP3 (hDPEP3) protein on the cell surface (human); test: flow cytometry, HEK-293T cells overexpressing hDPEP3

| binding | Binder |
| --- | --- |
| binds | B20 |
| binds | B17 |
| binds | B18 |
| binds | B21 |
| binds | B22 |
